Measured values: PubChem BioAssay AID504467 (National Center for Advancing Translational Sciences (NCATS), 2011)
The whole screen tested about 330,000 compounds, of which about 7,700 (2.3%) were called active. Inconclusive means that the source gave no clear call. Such entries were picked first, then a sample of the others. Calls follow the shape of the dose curve; as a rule, active = well fitted inhibition curve with a large enough effect; inconclusive = small, poorly fitted or top-dose-only effect, or effect the other way; inactive = flat fitted curve, though single readings scatter. Potencies of inconclusive entries are doubtful fits and often do not repeat.

Experiment: qHTS screen for small molecules that inhibit ELG1-dependent DNA repair in human embryonic kidney (HEK293T) cells expressing luciferase-tagged ELG1; also: nearly all actives have a fitted effect of over 55% in size
Conditions: HEK293T ELG1-luciferase reporter, luminescence, 16 h, DNA damage induced by 5-fluorouridine; series mostly up to 46.1 µM
How it was run: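 DMSO vehicle served as the neutral condition. Each well held 2,000 cells given 5-fluorouridine plus compound; after 16 hr at 37 °C/5% CO2, ONE-Glo was added and luciferase measured 30 min later.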
Potency is read from the fitted curve at half-maximal effect.

Row | Compound | Potency
1 | COc1cccc(CN(C)C(=O)CSc2nc3ccccc3[nH]2)c1OC | inactive
2 | NC(=O)Cc1ccc(C(=O)c2ccc(Cl)cc2Cl)s1 | inconclusive: 0.231 µM [inhibitor, single point]
3 | Cc1cccc(CCN(C(=O)c2csnn2)C(C(=O)NC2CCCC2)c2ccco2)c1 (stereo unspecified) | inactive
4 | CCN(C[C@H]1N[C@@](Cc2ccccc2)(C(=O)OC)[C@H]2C(=O)N(C)C(=O)[C@@H]12)S(=O)(=O)c1ccccc1 | inconclusive: 29.1 µM [inhibitor, partial curve, poor fit]
5 | COCCn1c(SCC(=O)NC2CCCC2)nnc1C(C)C | inactive
6 | Fc1ccc(CSc2nncn2NCc2ccc3c(c2)OCO3)cc1 | inconclusive: 29.1 µM [inhibitor, single point]
7 | CCN(CC)C1CC(=O)N(c2cccc(C)c2)C1=O (stereo unspecified) | inactive
8 | CC1(C)Cc2c(sc3nc4n(c(=N)c23)CCCCC4)CO1 | inconclusive: 20.6 µM [activator, single point]
9 | Cc1ccccc1N1CCN(C(=O)C2CCCCC2)CC1 | inactive
10 | Cc1ccc(C(C(=O)NC2CCCCC2)N(Cc2ccco2)C(=O)C2COc3ccccc3O2)o1 (stereo unspecified) | inconclusive: 16.4 µM [inhibitor, single point]
11 | CCC(Sc1nc(N)cc(N)n1)C(=O)O (stereo unspecified) | inconclusive: 29.1 µM [activator, partial curve, poor fit]
12 | CCOC(=O)CSc1nc(-c2ccccc2)nc2ccc(C)cc12 | inconclusive: 4.61 µM [inhibitor, partial curve, poor fit]
13 | CN(C)S(=O)(=O)c1ccc(C(=O)NCCOc2ccc(F)cc2)cc1 | inconclusive: 20.6 µM [activator, partial curve]
14 | O=C(Nc1nc2ccccc2s1)c1c(F)cccc1Cl | inconclusive: 16.4 µM [activator, single point]
15 | COc1ccccc1N(CC(=O)NCCSc1ccccn1)S(=O)(=O)c1ccccc1 | inactive
16 | CCCCCSc1nc2c(c(=O)[nH]c(=O)n2C)n1C(C)C | inconclusive: 20.6 µM [activator, partial curve]
17 | COc1ccc(C(=O)CSc2nc(C(C)(C)C)nc3ccccc23)cc1 | inactive
18 | CSc1cccc(NC(=S)N2CCC(c3ccccc3)C2)c1 (stereo unspecified) | inconclusive: 20.6 µM [activator, single point]
19 | O=C(Nc1ccccc1[N+](=O)[O-])c1cc(S(=O)(=O)N2CCOCC2)cs1 | inconclusive: 1.16 µM [activator, single point]
20 | O=C(Nc1cc(Sc2ccccn2)cc([N+](=O)[O-])c1)c1ccc(Cl)cc1 | inconclusive: 20.6 µM [inhibitor, single point]
21 | Cc1c(OC(C)C(=O)NCCN2CCOCC2)ccc2c3c(c(=O)oc12)CCC3 (stereo unspecified) | inconclusive: 16.4 µM [activator, partial curve, poor fit]
22 | CCOC(=O)C1=C(C)NC(C)=C(C(=O)OCC)C1C(=O)OCC(=O)N(CC)C1CCS(=O)(=O)C1 (stereo unspecified) | inactive
23 | O=C(Nc1ccc(Cc2ccncc2)cc1)c1ccco1 | inconclusive: 11.6 µM [activator, partial curve]
24 | N#CC(c1nc2ccccc2nc1OCCO)S(=O)(=O)c1ccccc1 (stereo unspecified) | inconclusive: 29.1 µM [inhibitor, single point]

Some values from the list.
Potency with O=C(Nc1cc(Sc2ccccn2)cc([N+](=O)[O-])c1)c1ccc(Cl)cc1 reads inconclusive: 20.6 µM [inhibitor, single point]
Potency with O=C(Nc1ccc(Cc2ccncc2)cc1)c1ccco1 reads inconclusive: 11.6 µM [activator, partial curve]
Potency with Fc1ccc(CSc2nncn2NCc2ccc3c(c2)OCO3)cc1 reads inconclusive: 29.1 µM [inhibitor, single point]

(further entries)

Row | Compound | Potency
25 | Cc1nnc(SCc2ccc(F)cc2Cl)s1 | inconclusive: 5.17 µM [activator, single point]
26 | COC(=O)c1c(C)cc(C)c2c1CC(C)(C)C2=O | inconclusive: 6.51 µM [activator, single point]
27 | CC1=Nc2cc(C(=O)NCC3CCCO3)ccc2Sc2ccc(C)cc21 (stereo unspecified) | inactive
28 | C/C(=N\Nc1ccc([N+](=O)[O-])cc1)c1ccc(C#N)cc1 | inactive
29 | O=C(Cc1ccc(S(=O)(=O)N2CCOCC2)s1)NCCc1ccc(F)cc1 | inactive
30 | O=C(NC(NC1CCS(=O)(=O)C1)C(Cl)(Cl)Cl)c1cccc(Cl)c1 (stereo unspecified) | inactive
31 | Cc1ccc2c(c1)COc1c3ccc(C(=O)NC(C)C)cc3nn1-2 | inconclusive: 2.31 µM [activator, partial curve]
32 | Cc1sc2nc(COC(=O)c3c(F)cccc3F)[nH]c(=O)c2c1C | inconclusive: 23.1 µM [inhibitor, single point]
33 | COc1cc(C2=NC(CO)(CO)CO2)cc(OC)c1OC | inconclusive: 25.9 µM [activator, single point]
34 | Cc1cccc(-n2cnc3sc(C)c(C)c3c2=O)c1 | inconclusive: 16.4 µM [activator, partial curve, poor fit]
35 | Cc1ccc2cc(C(c3nnnn3Cc3ccccc3)N3CCN(c4ccccc4)CC3)c(=O)[nH]c2c1 (stereo unspecified) | inconclusive: 23.1 µM [inhibitor, single point]
36 | Cc1c(Cl)ccc2c1NC(=O)[C@]21N[C@@H](Cc2ccccc2)[C@H]2C(=O)N(c3ccc(F)cc3)C(=O)[C@H]21 | inconclusive: 18.4 µM [inhibitor, partial curve, poor fit]
37 | COc1ccc(/C=C/c2nc3ccccc3c(=O)o2)cc1 | inconclusive: 1.3 µM [activator, partial curve]
38 | COc1cccc(C(C(=O)NCC2CCCO2)N(C(=O)Cn2nnc3ccccc32)c2ccccc2C(C)=O)c1OC (stereo unspecified) | inactive
39 | Brc1ccc2nc(CSc3ncn[nH]3)cn2c1 | inconclusive: 20.6 µM [activator, partial curve]
40 | C[C@H](C(=O)CC(=O)OC(C)(C)C)[C@H](O)c1ccccc1 | inactive
41 | COc1ccc2[nH]c3c(c2c1)CCN1C(=O)C(CC(=O)NCc2ccc(OC)c(OC)c2)C[C@H](C(=O)N2CCOCC2)[C@@]31C (stereo partly specified) | inconclusive: 29.1 µM [activator, partial curve, poor fit]
42 | CC(C)c1onc(C(=O)Nc2sc3c(c2C#N)CCC3)c1[N+](=O)[O-] | inactive
43 | Cc1ccc(CNC(=O)CCCCCNc2nc(=S)[nH]c3ccccc23)cc1 | inconclusive: 0.517 µM [inhibitor, partial curve, poor fit]
44 | CC1(c2nnc(-c3ccc(F)cc3)o2)CC(c2ccccc2)=NO1 (stereo unspecified) | inactive
45 | COc1ccccc1C(=O)Nc1c2c(nn1-c1cccc(C)c1C)CS(=O)C2 (stereo unspecified) | inconclusive: 20.6 µM [inhibitor, partial curve]
46 | CC(C)CNC(=O)[C@H]1N2C(=O)c3ccccc3C2SC1(C)C (stereo partly specified) | inactive
47 | COc1ccc(CNC(=O)C(c2ccc(C)cc2)N(Cc2cccs2)C(=O)c2ccc3c(c2)OCCO3)cc1 (stereo unspecified) | inconclusive: 4.61 µM [inhibitor, partial curve]
48 | CCCCCOc1ccc(CSC(=N)N)cc1[N+](=O)[O-] | inconclusive: 16.4 µM [activator, partial curve, poor fit]

Row | Compound | Potency
49 | O=C1NC(=O)/C(=C\c2ccccc2OCc2ccc([N+](=O)[O-])cc2)N1 | inconclusive: 32.6 µM [inhibitor, single point]
50 | COCCCN=Cc1c(C)[nH]n(-c2ccc(Br)c(C)c2)c1=O | inconclusive: 0.82 µM [activator, full curve]
51 | CN1CCN(C(=O)c2ccc(CS(=O)(=O)c3c(Cl)cccc3Cl)o2)CC1 | inactive
52 | CCC(C)NCCCCOc1cc(C)cc(C(C)C)c1 (stereo unspecified) | inactive
53 | COc1cc(C2NC(=O)NC(C)=C2C(=O)OCc2ccc(C)cc2)cc(OC)c1OC (stereo unspecified) | inconclusive: 29.1 µM [inhibitor, partial curve, poor fit]
54 | CCCCCCn1c(-c2ccco2)nc2oc3cc(OC)ccc3c(=O)c2c1=O | inconclusive: 25.9 µM [inhibitor, single point]
55 | CCOc1ccc(S(=O)(=O)N(C)c2ccc(OCC(=O)Nc3nccs3)cc2)cc1 | inconclusive: 18.3 µM [inhibitor, single point]
56 | Cc1ccc(-c2nn(-c3ccccc3)cc2CO)cc1 | inconclusive: 20.6 µM [activator, single point]
57 | COC(=O)c1sccc1NC(=O)c1cc(-c2ccc(C)cc2C)nc2ccccc12 | inconclusive: 13 µM [inhibitor, partial curve, poor fit]
58 | CCOC(=O)c1nn(-c2ccc(Br)cc2)cc1C(=O)c1cccc2ccccc12 | inconclusive: 16.4 µM [activator, partial curve]
59 | CN1C[C@@H]2C(c3ccccc3)C3(c4ccccc4)CC2(C3)[C@H]1c1ccccc1 (stereo partly specified) | inactive
60 | CCN(CCO)Cc1csc2ccc(C(C)(C)C)cc12 | inactive
61 | CCc1nnc(SCC(=O)Nc2ccc(N3CCOCC3)cc2)n1C | inconclusive: 20.6 µM [activator, partial curve]
62 | CCCN1C(=O)/C(=C/c2cc(C)n(C)c2C)SC1=Nc1ccc(OC)cc1 | inactive
63 | N#CC(C#N)=C1c2cc(S(N)(=O)=O)ccc2-c2ccc(S(N)(=O)=O)cc21 | inactive
64 | CCNC(=S)NNC(=O)c1cc(CC(C)C)nc2ccccc12 | inactive
65 | COc1ccccc1N1CCN(/N=C\c2ccc(C)o2)CC1 | inconclusive: 16.4 µM [activator, partial curve]
66 | CC(=O)Nc1ccc(SCC(=O)Nc2cc(C)on2)cc1 | inactive
67 | O=c1c2ccccc2nc(/C=C/c2ccc3c(c2)OCO3)n1CCCO | inactive
68 | CCn1c(-c2c[nH]c3ccccc23)n[nH]c1=S | inconclusive: 32.6 µM [activator, partial curve, poor fit]
69 | CC(C(=O)NC(N)=O)N1C(=O)NC(c2ccccc2)(c2ccccc2)C1=O (stereo unspecified) | inactive
70 | CC(=O)c1cccc(NS(=O)(=O)c2cc3c(cc2C)N(C(C)=O)CCO3)c1 | inactive
71 | Cn1c(NCc2ccco2)nc2ccccc21 | inconclusive: 18.4 µM [activator, single point]
